The results in this text go back to paper PMC13225845.

Amino acid sequences for entries named in this document (tags omitted).
UniProt Q09725: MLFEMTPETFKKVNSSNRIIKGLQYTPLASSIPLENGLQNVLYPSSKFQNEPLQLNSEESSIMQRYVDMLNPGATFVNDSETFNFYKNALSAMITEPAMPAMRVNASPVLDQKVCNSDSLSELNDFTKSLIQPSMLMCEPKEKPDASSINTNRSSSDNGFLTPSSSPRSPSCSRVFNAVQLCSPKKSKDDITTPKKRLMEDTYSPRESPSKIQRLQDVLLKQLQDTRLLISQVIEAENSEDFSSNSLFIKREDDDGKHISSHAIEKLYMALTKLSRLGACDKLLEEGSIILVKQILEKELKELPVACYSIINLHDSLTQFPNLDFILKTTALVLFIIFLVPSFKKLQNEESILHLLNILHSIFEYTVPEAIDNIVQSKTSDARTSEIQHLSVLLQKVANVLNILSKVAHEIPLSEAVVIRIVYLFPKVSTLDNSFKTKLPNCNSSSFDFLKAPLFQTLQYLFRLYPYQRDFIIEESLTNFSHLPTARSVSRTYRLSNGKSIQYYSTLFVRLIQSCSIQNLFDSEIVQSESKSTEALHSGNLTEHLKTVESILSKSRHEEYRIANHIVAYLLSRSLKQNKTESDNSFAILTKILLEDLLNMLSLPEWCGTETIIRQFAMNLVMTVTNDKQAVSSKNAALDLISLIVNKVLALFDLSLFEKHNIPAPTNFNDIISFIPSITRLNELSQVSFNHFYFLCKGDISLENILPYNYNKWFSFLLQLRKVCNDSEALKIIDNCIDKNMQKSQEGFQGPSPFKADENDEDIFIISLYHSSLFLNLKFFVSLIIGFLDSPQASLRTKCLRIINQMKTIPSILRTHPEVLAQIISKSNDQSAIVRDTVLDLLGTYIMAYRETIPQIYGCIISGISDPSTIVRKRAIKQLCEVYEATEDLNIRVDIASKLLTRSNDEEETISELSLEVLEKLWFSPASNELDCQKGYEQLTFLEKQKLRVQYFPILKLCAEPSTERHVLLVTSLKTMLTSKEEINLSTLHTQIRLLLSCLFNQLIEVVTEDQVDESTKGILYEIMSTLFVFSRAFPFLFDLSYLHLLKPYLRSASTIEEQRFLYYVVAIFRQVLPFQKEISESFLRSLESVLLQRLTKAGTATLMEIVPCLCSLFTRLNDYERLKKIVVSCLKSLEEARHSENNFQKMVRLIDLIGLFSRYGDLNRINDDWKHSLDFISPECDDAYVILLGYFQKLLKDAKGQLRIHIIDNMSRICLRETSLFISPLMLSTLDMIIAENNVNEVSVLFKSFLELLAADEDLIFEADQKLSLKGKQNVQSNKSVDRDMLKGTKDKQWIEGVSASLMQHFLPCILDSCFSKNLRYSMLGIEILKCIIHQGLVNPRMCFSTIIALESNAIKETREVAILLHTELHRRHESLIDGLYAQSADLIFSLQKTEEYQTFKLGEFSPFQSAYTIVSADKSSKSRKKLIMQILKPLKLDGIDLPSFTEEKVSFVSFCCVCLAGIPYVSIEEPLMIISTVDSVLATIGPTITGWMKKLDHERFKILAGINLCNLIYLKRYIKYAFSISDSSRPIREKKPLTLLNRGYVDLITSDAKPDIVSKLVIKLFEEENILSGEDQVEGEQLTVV
UniProt O74184: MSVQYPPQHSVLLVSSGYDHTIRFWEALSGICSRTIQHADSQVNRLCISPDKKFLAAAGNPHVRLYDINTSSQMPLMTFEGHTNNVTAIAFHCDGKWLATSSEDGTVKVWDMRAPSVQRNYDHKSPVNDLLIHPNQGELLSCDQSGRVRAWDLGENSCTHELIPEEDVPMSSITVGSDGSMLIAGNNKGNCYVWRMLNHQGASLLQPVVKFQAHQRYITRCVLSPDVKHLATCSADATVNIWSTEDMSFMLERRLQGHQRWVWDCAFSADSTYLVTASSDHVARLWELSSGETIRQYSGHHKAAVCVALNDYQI
UniProt P87141: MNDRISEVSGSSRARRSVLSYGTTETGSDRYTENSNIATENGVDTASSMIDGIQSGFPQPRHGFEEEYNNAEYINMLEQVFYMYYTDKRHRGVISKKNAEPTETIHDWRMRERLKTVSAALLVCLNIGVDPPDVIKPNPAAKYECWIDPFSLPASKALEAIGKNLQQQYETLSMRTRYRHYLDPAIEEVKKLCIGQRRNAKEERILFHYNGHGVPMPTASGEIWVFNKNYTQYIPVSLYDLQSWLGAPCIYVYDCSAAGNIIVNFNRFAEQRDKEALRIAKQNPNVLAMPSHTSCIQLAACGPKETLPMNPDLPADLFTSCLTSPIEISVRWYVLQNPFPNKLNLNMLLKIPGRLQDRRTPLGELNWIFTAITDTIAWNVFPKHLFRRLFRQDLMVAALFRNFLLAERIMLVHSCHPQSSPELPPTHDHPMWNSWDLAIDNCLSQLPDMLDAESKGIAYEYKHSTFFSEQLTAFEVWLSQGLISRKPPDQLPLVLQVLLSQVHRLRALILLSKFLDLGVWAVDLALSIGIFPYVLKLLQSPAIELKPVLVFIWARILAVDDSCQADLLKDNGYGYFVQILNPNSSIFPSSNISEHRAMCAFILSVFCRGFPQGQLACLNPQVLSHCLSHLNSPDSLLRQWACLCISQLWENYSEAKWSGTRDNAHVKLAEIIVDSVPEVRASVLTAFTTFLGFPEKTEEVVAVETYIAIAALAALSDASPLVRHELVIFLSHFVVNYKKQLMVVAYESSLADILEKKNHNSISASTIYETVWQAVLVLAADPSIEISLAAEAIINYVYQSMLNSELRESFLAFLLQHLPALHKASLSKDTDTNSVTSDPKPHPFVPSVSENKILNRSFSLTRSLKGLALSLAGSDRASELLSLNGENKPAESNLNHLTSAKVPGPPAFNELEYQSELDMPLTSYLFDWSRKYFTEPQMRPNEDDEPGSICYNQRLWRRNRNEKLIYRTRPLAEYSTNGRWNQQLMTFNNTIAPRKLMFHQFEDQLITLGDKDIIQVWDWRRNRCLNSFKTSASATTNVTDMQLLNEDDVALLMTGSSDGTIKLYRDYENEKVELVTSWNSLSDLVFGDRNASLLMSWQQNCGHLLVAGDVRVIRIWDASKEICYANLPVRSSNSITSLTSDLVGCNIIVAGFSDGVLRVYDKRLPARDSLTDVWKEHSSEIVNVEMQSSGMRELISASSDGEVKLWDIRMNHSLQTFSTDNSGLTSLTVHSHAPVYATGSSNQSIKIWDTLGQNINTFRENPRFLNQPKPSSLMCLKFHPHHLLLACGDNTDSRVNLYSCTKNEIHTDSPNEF

These are yes or no findings as the source states them, for the method shown. In cells and extracts the contact can be indirect. Here binding means that the protein was enriched with, or labelled near, the bait; the list need not be complete.

Assay [1] concerns the target Mis4-GFP (cohesin loader Mis4) (S. pombe) (UniProt Q09725). Briefly: affinity purification with mass spectrometry; Mis4-GFP or Rad21-PK affinity-purified from protein extracts of G1-arrested cells (cdc10-129 arrest), triplicate samples, label-free mass spectrometry; repeated in mip1-R401G and pef1Δ cells.
For assay [2], the target named is T1, Rad21-PK (cohesin kleisin subunit Rad21) (S. pombe) (UniProt P30776).
T1 sequence: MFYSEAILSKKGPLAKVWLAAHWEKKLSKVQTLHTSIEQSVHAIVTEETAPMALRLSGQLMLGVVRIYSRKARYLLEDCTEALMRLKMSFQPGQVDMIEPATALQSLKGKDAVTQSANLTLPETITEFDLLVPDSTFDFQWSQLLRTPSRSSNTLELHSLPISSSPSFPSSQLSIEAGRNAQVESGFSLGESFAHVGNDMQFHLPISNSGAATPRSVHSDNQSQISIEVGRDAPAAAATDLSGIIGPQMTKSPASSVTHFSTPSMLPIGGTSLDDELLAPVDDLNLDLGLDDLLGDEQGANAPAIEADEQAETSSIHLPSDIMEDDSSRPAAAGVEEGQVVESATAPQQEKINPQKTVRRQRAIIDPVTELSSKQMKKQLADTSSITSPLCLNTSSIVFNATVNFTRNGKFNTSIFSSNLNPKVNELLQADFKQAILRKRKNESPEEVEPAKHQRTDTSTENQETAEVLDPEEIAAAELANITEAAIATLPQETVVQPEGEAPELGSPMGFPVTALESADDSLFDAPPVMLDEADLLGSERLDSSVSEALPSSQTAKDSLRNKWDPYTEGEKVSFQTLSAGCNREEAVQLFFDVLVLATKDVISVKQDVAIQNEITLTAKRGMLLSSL
The description is as above.

On to “Wat1/Pop3, the mLST8 orthologue (TORC1 subunit) (from UniProt O74184 1-314)”, for which the binding entry in assay [1] and in assay [2] was “binds” in each case.

As for “Mip1, the Raptor equivalent (TORC1 subunit) (from UniProt P87141 1-1313)”, the binding result in assay [1] and in assay [2] was “binds” throughout.

B1: Tco89 (TORC1 subunit) (protein, UniProt O74428 1-451)
chain: MERPSLSRRTSSSTVSTDGEGVYSRSTKERKRNFIVNSRLKRGGGHVRVNRSGRLGSVTMRPSALTRAHSQNPNSSLVNNSSAVSHLTKQRSLNDLHELNGPKHVAKNGLIPLTQRKPNCVWDDAPVDNDSTAGNLDSDSALPTPSVTTNEAADSSRASSPVTRVVAVHDNKKKIINSNISNAPPFNNTDVQASARPPAAGQDDSAADASTTKSSPVHNEVMAEPLPHSNNREVTQATNQPKWQIHSGSDIASEPPTLSRGNSLSLLANRKVPSTNVKKSQAELYDLGSSTSRTQQKLLIQRASSKFDIVEDDMDTNPSKRFSNPHTKHIMDLVRTQYRNVLRTRELIPEFLEKIRSSYSNNQNFDSQNAFNTSAAGTAGTREETISNGQNGIVASAETSKKDDGVQSASLNASMSARSHARQRSIHVPKTRKDTDYESIHQKLLQLWSQG
Turning to B1, the binding entry in assay [1] and in assay [2] was “binds” throughout.

B2: Psm1 (Smc1 subunit of fission yeast cohesin) (protein, UniProt O94383 1-1228)
chain: MGRLLRLEVENFKSYRGHQIIGPFEDFTSIIGPNGAGKSNLMDAISFVLGVKSSHLRSTNVKELIYRGKILQRDNTDFTDSSNPTTAYVKLMYELDNGEQREYKRAITPSGATEYKIDEEIVTFSEYCGSLQKENILVRARNFLVFQGDVETIASQSPLELSKLVEQISGSLEYKSEYDKSKDEQDKAVNLSAHSFNKKRGINAELRQYQEQKTEAERYQSQKEKRDSAQLVYLLWKLFHLEKSISSNMAEVTRLKADSIQLIERRDENTKEIEKLKEKEGSIRRNLLAFDRKVRKQEKLIASKRPELISIAEKALESKSNLRKIQRKAAEIEKDYSDQASTLQVLENQLTSLSAAEKEFLKDMQEKEQLKGLRLLPEDKEEYEGLRSEADKLNSNLLFKLQTLNRNIKVTSQSKDSLTSIVGDLESKIKSLHESVSSLDTERADLLAKINEKIESLELEKHDQQKKRLTYSELFHKTQELNEELQSCLQKILEASADRNESKQDAKKREALYALKRIYPEVKGRIIDLCTPTQKKYESAIAAALGKNFDAIVVETQAVAKECIDYIKEQRIGIMTFFPMDTIAASPVNQKFRGTHKGARLAIDVLNFESEYERVMISAVGNTLICDSMTVARDLSYNKRLNAKTVTLEGTVIHKTGLITGGSSNNRSAKHWDDHDFDLLTQTKDRLMHQIGEIEYQKSSCVITESDTVKLHSLESEISLLKDKYTVVSRSVEDKKKEIGHYESLIKEKQPHLSELEMELRNFVKSRDELQIQVEKVEEKIFSGFCKRIGISDIHTYDEIHRTFTQSFTQKQLEFTKQKSLLENRISFEKQRVSDTRLRLERMHKFIEKDQESIDNYEQNREALESEVATAEAELELLKEDFASENSKTEKILLAASEKKLVGKRLVSELTKLSGNITLLESEIDRYVSEWHAILRKCKLEDIDVPLREGSLTSIPIDDVSNSGDITMGEEPSEPVINFEKFGVEVDYDELDEELRNDGSESMASVLQEKLREYSEELDQMSPNLRAIERLETVETRLAKLDEEFAAARKAAKNAKERFNAVKQKRLQKFQAAFSHISEQIDPIYKELTKSPAFPLGGTAYLTLDDLDEPYLGGIKFHAMPPMKRFRDMDQLSGGEKTMAALALLFAIHSYQPSPFFVLDEIDAALDQTNVTKIANYIRQHASSGFQFVVISLKNQLFSKSEALVGIYRDQQENSSRTLSINLEGYVE
With B2, the binding result in assay [2] is “binds”.

B3: Toc1 (TORC1 subunit) (protein, UniProt Q9HDW0 1-430)
chain: MQLQSPFGDGISCECLNIRVLGIPNETKHQWIFVPRDLIKIKIYSLLQICKAENCSAVACRGCNLCILAVQGNIEISEEPQKLFQEENVKVYIYDSAISLSSVRASFPISELGIRMDIIKARAEPREDEIRASFSSLVNKEIKRTVEELLLSKRSTNRLSLLAFMRNQQLNYEAYETKLLEDASTIEKSLEKEVKTIYDSNIASPKESSDAIDADHAMIDESRSTQRRKSKPKKHVAFTDEYQVAFSDKPGKYFNQPMQYSKQFKLDNPDYEASSDSLNDIENLSTLTFRSDEELEFDFDTNNINNNKSGDSLEMSTTIPSDEENEDFTSKVDAMEIHSGSLPLNIDSSPIFTNHSPSSSLSSESSFEASPSSFVDRKNRWIQMLKKADEHSRSIQARSMGYVLSDDLDNSKAFRPYKQSFLAQGWKSLN
As to B3, the binding result in assay [1] and in assay [2] was “binds” each time.
